Assay results from PubChem BioAssay AID651956 (Broad Institute, 2012).
The inconclusive results got no clear call from the source; some entries with a clear call stand among them for comparison. Calls of active or inactive are those of the source.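 The calls were made as follows: active = in every test run, a fitted half-maximal concentration for signal decrease at or below twice the highest tested concentration; inconclusive = runs disagree, flat 30 to 70% decrease, or poor fit; inactive = the rest.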

assay: miR-122 activators in hepatoma reporter cells, dose response, cell-based, Huh7 psiCHECK-miR122, Renilla luciferase, cherry-picked (AID 651956); conditions: 48 h; at 35 µM (top of the series) unless noted;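 also: Renilla luciferase from a miR-122 sensor reporter so lower signal means miR-122 activation; 0% = median neutral control wells and -100% = median positive control wells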

With `CN1C(=O)c2cc(NC(=O)c3cccc(F)c3)ccc2OC[C@H]2O[C@H](CC(=O)NC3CCC3)CC[C@H]21` as the compound, how does the activity change, negative = signal decrease read?
Its activity change, negative = signal decrease is inconclusive: -20.8%.

Which activity change, negative = signal decrease does the source give for `COc1cccc(S(=O)(=O)N(C)C[C@@H]2Oc3cc(C4=CCCC4)ccc3S(=O)(=O)N([C@H](C)CO)C[C@@H]2C)c1` here?
Its activity change, negative = signal decrease is inconclusive: -40.8%.

With `COCC(=O)NC[C@@H]1[C@H](c2ccc(C3=CCCC3)cc2)[C@H](CO)N1C(=O)C1CC1` as the compound, how does the activity change, negative = signal decrease read?
Its activity change, negative = signal decrease is inconclusive: -44.2%.

For `CCS(=O)(=O)Nc1ccc2c(c1)C(=O)N(C)[C@@H]1CC[C@@H](CC(=O)NCCCN3CCOCC3)O[C@H]1CO2`, which activity change, negative = signal decrease is on record?
The activity change, negative = signal decrease was inconclusive: -54.8%.

Which activity change, negative = signal decrease does the source give for `CNC(=O)C[C@@H]1CC[C@H]2[C@H](COc3ccc(NC(=O)c4cccc(OC)c4)cc3C(=O)N2C)O1` here?
Its activity change, negative = signal decrease is inconclusive: -12.6%.

With `CO[C@@H]1CN(C)C(=O)c2ccc(NC(=O)Nc3ccc(C(F)(F)F)cc3)cc2OC[C@H](C)NC[C@H]1C` as the compound, how does the activity change, negative = signal decrease read?
Its activity change, negative = signal decrease is inconclusive: -8.08%.

Which activity change, negative = signal decrease does the source give for `CCCC(=O)Nc1ccc2c(c1)C(=O)N(C)[C@@H]1CC[C@H](CC(=O)NCCOC)O[C@H]1CO2` here?
The activity change, negative = signal decrease was inactive: 57.9%.

For `COCCN(C[C@@H]1[C@H](c2ccccc2)[C@@H](CO)N1C(=O)C1CCC1)C(C)=O`, which activity change, negative = signal decrease is on record?
Its activity change, negative = signal decrease is inconclusive: -60.8%.

Which activity change, negative = signal decrease does the source give for `O=C(Nc1ccc(Cl)cc1)N1C[C@H]2[C@@H](c3ccccc31)[C@H](CO)N2CC1CCCCC1` here?
The activity change, negative = signal decrease was inconclusive: -111%.

Which activity change, negative = signal decrease does the source give for `CCNC(=O)Nc1ccc2c(c1)C(=O)N(C)[C@H]1CC[C@H](CC(=O)Nc3cccc(F)c3)O[C@@H]1CO2` here?
Its activity change, negative = signal decrease is inactive: 147%.

With `CO[C@@H]1CN(C)C(=O)c2ccc(NC(=O)c3ccc(Oc4ccccc4)cc3)cc2OC[C@H](C)NC[C@H]1C` as the compound, how does the activity change, negative = signal decrease read?
The activity change, negative = signal decrease was inconclusive: -101%.

Which activity change, negative = signal decrease does the source give for `COc1cccc(CNC(=O)C[C@@H]2CC[C@H]3[C@H](COc4ccc(NS(=O)(=O)c5ccccc5F)cc4C(=O)N3C)O2)c1` here?
The activity change, negative = signal decrease was inconclusive: -51.8%.

Which activity change, negative = signal decrease does the source give for `CCN(C[C@@H]1[C@@H](c2ccccc2)[C@@H](CO)N1C(=O)COC)S(C)(=O)=O` here?
Its activity change, negative = signal decrease is inconclusive: -43.6% [at 30 µM].

With `COCC(=O)Nc1ccc2c(c1)C(=O)N(C)[C@H]1CC[C@@H](CC(=O)NCCCN(C)C)O[C@@H]1CO2` as the compound, how does the activity change, negative = signal decrease read?
The activity change, negative = signal decrease was inconclusive: -17.6%.

With `CO[C@H]1CN(C)C(=O)c2cc(NC(=O)Nc3cc(Cl)cc(Cl)c3)ccc2OC[C@H](C)NC[C@@H]1C` as the compound, how does the activity change, negative = signal decrease read?
The activity change, negative = signal decrease was inconclusive: -109%.

For `Cc1cccc(NC(=O)c2sc3nc(-c4ccc(F)cc4)cn3c2C)n1`, which activity change, negative = signal decrease is on record?
Its activity change, negative = signal decrease is inconclusive: -44.2%.

Which activity change, negative = signal decrease does the source give for `NC(=O)c1cn(-c2ccccc2)nc1-c1cc2ccccc2oc1=O` here?
Its activity change, negative = signal decrease is inconclusive: -37.1%.

Which activity change, negative = signal decrease does the source give for `COc1cccc(CNC(=O)C[C@@H]2CC[C@@H]3[C@H](COc4ccc(NC(C)=O)cc4C(=O)N3C)O2)c1` here?
The activity change, negative = signal decrease was inactive: 14.2%.

Which activity change, negative = signal decrease does the source give for `CCNC(=O)C[C@H]1CC[C@@H]2[C@H](COc3ccc(NC(=O)Nc4cccc(OC)c4)cc3C(=O)N2C)O1` here?
Its activity change, negative = signal decrease is inconclusive: -42.6%.

Which activity change, negative = signal decrease does the source give for `O=C(c1cccnc1)N1C[C@H]2[C@@H](c3ccccc31)[C@H](CO)N2C(=O)C1CCCC1` here?
Its activity change, negative = signal decrease is inconclusive: -34.2%.

With `COCCN(C[C@@H]1[C@@H](c2ccccc2)[C@H](CO)N1C(=O)C1CC1)C(C)=O` as the compound, how does the activity change, negative = signal decrease read?
Its activity change, negative = signal decrease is inconclusive: -25%.

Which activity change, negative = signal decrease does the source give for `CCCNC(=O)Nc1ccc2c(c1)C(=O)N(C)[C@H]1CC[C@H](CC(=O)NC3CCC3)O[C@H]1CO2` here?
The activity change, negative = signal decrease was inconclusive: -16.9%.

Which activity change, negative = signal decrease does the source give for `CN1C(=O)c2cc(NC(=O)c3cccs3)ccc2OC[C@@H]2O[C@@H](CC(=O)NCC(F)(F)F)CC[C@H]21` here?
Its activity change, negative = signal decrease is inconclusive: -36%.

With `COCC(=O)Nc1ccc2c(c1)C(=O)N(C)[C@@H]1CC[C@@H](CC(=O)NCc3ccc(OC)cc3)O[C@H]1CO2` as the compound, how does the activity change, negative = signal decrease read?
The activity change, negative = signal decrease was inconclusive: -22.6%.

Which activity change, negative = signal decrease does the source give for `CN[C@H]1C[C@H]2c3[nH]c4ccc(-c5ccc(OC)cc5)cc4c3CCN2C(=O)[C@H]1[C@H](C)O` here?
The activity change, negative = signal decrease was inactive: -96.4%.

With `COC(=O)C[C@H]1CC[C@@H]2[C@H](COc3ccc(NC(=O)c4cccs4)cc3C(=O)N2C)O1` as the compound, how does the activity change, negative = signal decrease read?
Its activity change, negative = signal decrease is inconclusive: -22.6%.

With `CCCNC(=O)N1C[C@@H]2[C@H](c3ccccc31)[C@@H](CO)N2C(=O)C1CCOCC1` as the compound, how does the activity change, negative = signal decrease read?
The activity change, negative = signal decrease was inactive: 0%.

Which activity change, negative = signal decrease does the source give for `CC(C)C(=O)Nc1ccc2c(c1)C(=O)N(C)[C@@H]1CC[C@@H](CC(=O)NCC3CC3)O[C@H]1CO2` here?
Its activity change, negative = signal decrease is inconclusive: -36.9%.

For `Cc1nn(C)cc1NC(=O)C[C@H]1CC[C@H]2[C@H](COc3ccc(NC(=O)c4cccc(F)c4)cc3C(=O)N2C)O1`, which activity change, negative = signal decrease is on record?
Its activity change, negative = signal decrease is inactive: 74.4%.

For `CCNC(=O)C[C@@H]1CC[C@H]2[C@H](COc3ccc(NC(=O)c4ccccc4)cc3C(=O)N2C)O1`, which activity change, negative = signal decrease is on record?
The activity change, negative = signal decrease was inconclusive: -15.5%.

Which activity change, negative = signal decrease does the source give for `Cc1cccc(NC(=O)Nc2ccc3c(c2)C(=O)N(C)[C@H]2CC[C@H](CC(=O)O)O[C@H]2CO3)c1` here?
The activity change, negative = signal decrease was inactive: -12.9%.

With `COCC(=O)Nc1ccc2c(c1)C(=O)N(C)[C@@H]1CC[C@@H](CC(=O)NC3CCCC3)O[C@H]1CO2` as the compound, how does the activity change, negative = signal decrease read?
Its activity change, negative = signal decrease is inactive: 156% [at 30 µM].

For `COCC(=O)N1[C@@H](CO)[C@@H]2c3ccccc3N(C(=O)c3cccnc3)C[C@@H]21`, which activity change, negative = signal decrease is on record?
The activity change, negative = signal decrease was inconclusive: -43.1%.

For `CC(C)Oc1ccc(CNCCC2(C(C)C)CCOC(C)(C)C2)cc1` (stereo not given), which activity change, negative = signal decrease is on record?
The activity change, negative = signal decrease was inactive: 186%.

With `CNC(=O)C[C@H]1CC[C@@H]2[C@H](COc3ccc(NC(=O)c4ccc(OC)cc4)cc3C(=O)N2C)O1` as the compound, how does the activity change, negative = signal decrease read?
The activity change, negative = signal decrease was inconclusive: -43.1%.
